For 7 substances, binding results are on record in PMC10987540, “Biogenesis of Rab14-positive endosome buds at Golgi–endosome contacts by the RhoBTB3–SHIP164–Vps26B complex” (Cell Discovery, 2024).

Sequences of proteins named here, by UniProt entry; tags and fusion partners are left off. A change or cut given only in a name is not applied to a line headed by its entry. Residues count along the entry.
UniProt A0JNW5: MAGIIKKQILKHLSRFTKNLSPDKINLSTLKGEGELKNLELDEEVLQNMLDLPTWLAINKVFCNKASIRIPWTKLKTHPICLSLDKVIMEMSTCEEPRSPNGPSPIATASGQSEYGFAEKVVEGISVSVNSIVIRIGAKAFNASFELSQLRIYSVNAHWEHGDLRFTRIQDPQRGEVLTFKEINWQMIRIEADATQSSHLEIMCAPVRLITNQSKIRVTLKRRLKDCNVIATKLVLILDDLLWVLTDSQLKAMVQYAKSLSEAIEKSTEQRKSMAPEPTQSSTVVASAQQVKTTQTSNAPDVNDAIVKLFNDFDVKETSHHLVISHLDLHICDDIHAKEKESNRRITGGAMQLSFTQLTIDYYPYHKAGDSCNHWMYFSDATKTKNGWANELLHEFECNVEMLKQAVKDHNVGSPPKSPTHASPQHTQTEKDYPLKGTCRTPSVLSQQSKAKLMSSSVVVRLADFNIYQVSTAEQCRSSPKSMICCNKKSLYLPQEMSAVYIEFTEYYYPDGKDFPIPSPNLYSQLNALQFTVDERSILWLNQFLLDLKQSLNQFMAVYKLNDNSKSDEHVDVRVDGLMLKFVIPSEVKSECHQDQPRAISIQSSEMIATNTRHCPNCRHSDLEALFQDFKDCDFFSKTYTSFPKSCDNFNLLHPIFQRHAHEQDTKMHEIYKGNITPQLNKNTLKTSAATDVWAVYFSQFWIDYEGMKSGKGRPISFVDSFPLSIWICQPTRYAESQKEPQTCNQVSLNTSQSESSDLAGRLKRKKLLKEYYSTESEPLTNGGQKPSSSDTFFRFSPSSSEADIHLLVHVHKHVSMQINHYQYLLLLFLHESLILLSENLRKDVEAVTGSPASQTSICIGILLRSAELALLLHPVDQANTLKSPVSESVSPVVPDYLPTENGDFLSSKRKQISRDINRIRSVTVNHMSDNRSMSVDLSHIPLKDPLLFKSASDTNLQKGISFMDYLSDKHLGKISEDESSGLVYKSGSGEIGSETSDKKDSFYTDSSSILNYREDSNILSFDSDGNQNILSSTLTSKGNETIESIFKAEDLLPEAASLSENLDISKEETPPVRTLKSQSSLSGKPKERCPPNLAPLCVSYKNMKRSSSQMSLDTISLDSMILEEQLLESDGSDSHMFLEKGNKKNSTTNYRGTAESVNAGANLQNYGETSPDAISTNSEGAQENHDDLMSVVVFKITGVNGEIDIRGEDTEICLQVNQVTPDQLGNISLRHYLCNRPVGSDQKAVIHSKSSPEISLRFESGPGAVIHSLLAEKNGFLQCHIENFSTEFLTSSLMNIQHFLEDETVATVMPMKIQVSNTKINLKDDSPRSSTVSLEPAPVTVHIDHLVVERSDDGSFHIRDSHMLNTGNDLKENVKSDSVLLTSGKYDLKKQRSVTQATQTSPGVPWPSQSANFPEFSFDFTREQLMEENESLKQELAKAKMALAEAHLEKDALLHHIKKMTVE
GST-SHIP164-Chorein N: residues 1-104 of A0JNW5
GST-SHIP164-CT (residues 890–1464): residues 890-1464 of A0JNW5
UniProt O94955: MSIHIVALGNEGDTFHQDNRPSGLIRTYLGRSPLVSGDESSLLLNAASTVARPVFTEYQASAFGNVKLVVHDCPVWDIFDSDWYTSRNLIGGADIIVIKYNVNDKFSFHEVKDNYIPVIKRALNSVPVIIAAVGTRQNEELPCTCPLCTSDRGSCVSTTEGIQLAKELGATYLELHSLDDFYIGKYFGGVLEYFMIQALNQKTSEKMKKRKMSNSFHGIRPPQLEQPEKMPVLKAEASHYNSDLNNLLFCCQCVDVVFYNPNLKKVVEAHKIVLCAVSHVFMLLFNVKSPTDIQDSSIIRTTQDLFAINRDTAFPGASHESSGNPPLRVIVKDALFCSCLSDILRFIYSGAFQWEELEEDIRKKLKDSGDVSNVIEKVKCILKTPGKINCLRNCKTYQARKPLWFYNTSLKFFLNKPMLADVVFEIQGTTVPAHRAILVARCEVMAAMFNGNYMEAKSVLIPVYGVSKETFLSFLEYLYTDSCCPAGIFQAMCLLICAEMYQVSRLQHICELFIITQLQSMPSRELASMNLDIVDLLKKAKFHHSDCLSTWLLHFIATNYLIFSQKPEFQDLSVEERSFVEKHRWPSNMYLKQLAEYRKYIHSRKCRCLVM
UniProt Q4G0F5: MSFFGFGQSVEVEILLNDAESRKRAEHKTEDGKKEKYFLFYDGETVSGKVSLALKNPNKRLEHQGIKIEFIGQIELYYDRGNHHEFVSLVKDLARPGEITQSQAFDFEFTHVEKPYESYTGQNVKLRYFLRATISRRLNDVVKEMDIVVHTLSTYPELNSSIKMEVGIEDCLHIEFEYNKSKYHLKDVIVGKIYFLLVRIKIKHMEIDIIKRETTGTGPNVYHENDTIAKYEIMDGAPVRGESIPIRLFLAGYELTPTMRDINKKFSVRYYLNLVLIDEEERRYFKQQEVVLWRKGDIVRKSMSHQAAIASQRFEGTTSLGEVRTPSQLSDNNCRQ

Results are given in words; binding and its absence hold for the method and conditions named. For some of these results: In cells and extracts the contact can be indirect. Some entries that bind do so weakly or less than the wild type.

Assay [1] concerns the target endogenous SHIP164 (human (endogenous in HEK293)) (UniProt A0JNW5). Kind of assay: co-IP; endogenous immunoprecipitation: lysate with 1 μg antibody 8 h at 4 °C, protein A/G beads 12 h; IgG as negative control; HEK293 cells.
For assay [2], the target named is GFP-RhoBTB3 (UniProt O94955). Kind of assay: co-IP; GFP-Trap agarose beads, lysates of transfected HEK293 cells; lysis buffer 50 mM Tris-Cl pH 7.5, 150 mM NaCl, 0.5 mM EDTA, 0.5% Nonidet P40 Substitute; 3 h at 4 °C; immunoblot; for GFP-RhoBTB3 with Vps26B also in SHIP164 KO #9 cells. In general terms: Immunoblotting shows a protein as a band on a membrane.
Assay [3] has as its target GST-SHIP164-CT (residues 890–1464) (UniProt A0JNW5). Kind of assay: pull-down; GST pull-down: purified GST protein on GST tag resin, His fusion protein added, 12 h at 4 °C, HNM buffer (20 mM HEPES pH 7.4, 100 mM NaCl, 5 mM MgCl2, 1 mM DTT, 0.2% NP-40); blot with anti-GST or His antibodies; both purified.
Assay [4] deals with GFP-SHIP164 (UniProt A0JNW5). The experiment in a line: co-IP; GFP-Trap agarose beads, lysates of transfected HEK293 cells; lysis buffer 50 mM Tris-Cl pH 7.5, 150 mM NaCl, 0.5 mM EDTA, 0.5% Nonidet P40 Substitute; 3 h at 4 °C; immunoblot; for GFP-RhoBTB3 with Vps26B also in SHIP164 KO #9 cells.
The target in assay [5] is GST-SHIP164-Chorein N (UniProt A0JNW5). Kind of assay: pull-down; GST pull-down: purified GST protein on GST tag resin, His fusion protein added, 12 h at 4 °C, HNM buffer (20 mM HEPES pH 7.4, 100 mM NaCl, 5 mM MgCl2, 1 mM DTT, 0.2% NP-40); blot with anti-GST or His antibodies; both purified.
The target of assay [6] is endogenous Vps26B (human (endogenous in HEK293)) (UniProt Q4G0F5). The experiment in a line: co-IP; endogenous immunoprecipitation: lysate with 1 μg antibody 8 h at 4 °C, protein A/G beads 12 h; IgG as negative control; HEK293 cells.
For assay [7], the target named is Vps26B-RFPnb (UniProt Q4G0F5). Kind of assay: knock-sideways recruitment (confocal microscopy); one partner fused to an RFP nanobody is sent to mCherry-marked membranes (ACSL3-mCh lipid droplets or mCh-Sec61β ER) in HEK293 cells; recruitment of soluble GFP-SHIP164 scored by Pearson's correlation.
The target of assay [8] is BFP-RFPnb-RhoBTB3 (UniProt O94955). Described as above.

Take “endogenous Vps26B (from UniProt Q4G0F5 1-336)”: the binding result in assay [1] and in assay [2] was “binds” in each case.

In the case of His-Vps26B (from UniProt Q4G0F5 1-336), the binding result in assay [3] is “binds”.

Regarding “endogenous RhoBTB3 (from UniProt O94955 1-611)”, the binding entry in assay [1] is “binds”.

With “Halo-RhoBTB3 (from UniProt O94955 1-611)”, in assay [4], the binding result is reported as “binds”.

His-RhoBTB3 (from UniProt O94955 1-611): the binding entry in assay [5] was “binds”.

For “endogenous SHIP164 (from UniProt A0JNW5 1-1464)”, the binding entry in assay [6] and in assay [2] was “binds” in each case.

Consider “GFP-SHIP164 (from UniProt A0JNW5 1-1464)”, for which the binding entry in assay [7] and in assay [8] was “binds” throughout.
